Assay [1] has as its target T1, GFP-labeled mouse glucocorticoid receptor, wild type (mouse), P06537.
T1 chain: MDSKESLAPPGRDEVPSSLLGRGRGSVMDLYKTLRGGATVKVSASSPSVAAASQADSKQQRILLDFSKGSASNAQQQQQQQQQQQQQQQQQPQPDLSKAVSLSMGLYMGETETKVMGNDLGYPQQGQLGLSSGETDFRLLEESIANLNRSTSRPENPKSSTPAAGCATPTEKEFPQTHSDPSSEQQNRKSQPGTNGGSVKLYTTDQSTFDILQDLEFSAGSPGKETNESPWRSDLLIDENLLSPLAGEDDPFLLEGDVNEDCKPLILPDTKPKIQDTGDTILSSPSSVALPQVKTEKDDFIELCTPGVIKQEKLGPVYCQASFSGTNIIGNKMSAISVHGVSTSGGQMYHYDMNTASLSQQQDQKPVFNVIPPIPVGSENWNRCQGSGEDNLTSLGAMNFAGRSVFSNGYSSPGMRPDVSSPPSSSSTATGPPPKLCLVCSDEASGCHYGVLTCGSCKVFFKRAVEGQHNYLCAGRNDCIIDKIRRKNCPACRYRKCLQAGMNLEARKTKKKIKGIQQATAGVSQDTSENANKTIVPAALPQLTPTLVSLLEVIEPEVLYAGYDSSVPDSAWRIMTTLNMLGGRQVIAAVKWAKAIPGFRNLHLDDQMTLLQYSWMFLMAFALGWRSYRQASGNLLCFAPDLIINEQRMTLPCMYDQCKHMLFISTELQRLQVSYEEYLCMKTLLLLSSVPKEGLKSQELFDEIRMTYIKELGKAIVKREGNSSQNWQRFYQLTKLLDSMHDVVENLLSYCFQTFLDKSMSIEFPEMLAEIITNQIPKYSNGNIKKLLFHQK
As to the kind of experiment: number and brightness. The following applies: remark: other sources report otherwise.

In assay [2] the target is T1, GFP-labeled mouse glucocorticoid …. As to the kind of experiment: number and brightness. The following applies: remark: other sources report otherwise.

Results are given in words; binding and its absence hold for the method and conditions named. Some entries that bind do so weakly or less than the wild type. Tags and fused reporters may be left off the sequences shown.

B1: GFP-labeled mouse glucocorticoid receptor, wild type, P06537 1-792 (protein)
chain: MDSKESLAPPGRDEVPSSLLGRGRGSVMDLYKTLRGGATVKVSASSPSVAAASQADSKQQRILLDFSKGSASNAQQQQQQQQQQQQQQQQQPQPDLSKAVSLSMGLYMGETETKVMGNDLGYPQQGQLGLSSGETDFRLLEESIANLNRSTSRPENPKSSTPAAGCATPTEKEFPQTHSDPSSEQQNRKSQPGTNGGSVKLYTTDQSTFDILQDLEFSAGSPGKETNESPWRSDLLIDENLLSPLAGEDDPFLLEGDVNEDCKPLILPDTKPKIQDTGDTILSSPSSVALPQVKTEKDDFIELCTPGVIKQEKLGPVYCQASFSGTNIIGNKMSAISVHGVSTSGGQMYHYDMNTASLSQQQDQKPVFNVIPPIPVGSENWNRCQGSGEDNLTSLGAMNFAGRSVFSNGYSSPGMRPDVSSPPSSSSTATGPPPKLCLVCSDEASGCHYGVLTCGSCKVFFKRAVEGQHNYLCAGRNDCIIDKIRRKNCPACRYRKCLQAGMNLEARKTKKKIKGIQQATAGVSQDTSENANKTIVPAALPQLTPTLVSLLEVIEPEVLYAGYDSSVPDSAWRIMTTLNMLGGRQVIAAVKWAKAIPGFRNLHLDDQMTLLQYSWMFLMAFALGWRSYRQASGNLLCFAPDLIINEQRMTLPCMYDQCKHMLFISTELQRLQVSYEEYLCMKTLLLLSSVPKEGLKSQELFDEIRMTYIKELGKAIVKREGNSSQNWQRFYQLTKLLDSMHDVVENLLSYCFQTFLDKSMSIEFPEMLAEIITNQIPKYSNGNIKKLLFHQK
Turning to B1, the binding entry in assay [1] and in assay [2] was “binds” in each case.
